Some of the results follow.
Each molecule was assayed on diphosphomevalonate decarboxylase (Streptococcus pneumoniae D39) (assay: diphosphomevalonate decarboxylase activity blockers – biochemical, PK/LDH-coupled NADH fluorescence, primary screen (AID 556;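 note: kinetic rate of NADH fluorescence loss reporting ADP formed by the decarboxylase; 0% = full reaction rate with carrier and 100% = no-substrate background rate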)). Details: purified DPM-DC, measured here: pilot screen trials, at 10 µM, stronger effect = higher value.

Compound	inhibition [%]
Fc1ccccc1NC1CCN(Cc2ccccc2)CC1	1

Reference: PubChem BioAssay AID556 (SRMLSC, 2006)
